Reference: patent publication US20040111758A1
No constants are given. Whether binding was seen depends on the method and setting. Binding seen in cells or lysates may run through a third protein. Some binding calls cover weakened binding; strength is not graded here. Sequences can lack the tags named with a protein.

Sequences of proteins named here, by UniProt entry; tags and fusion partners are left off.
UniProt O43399: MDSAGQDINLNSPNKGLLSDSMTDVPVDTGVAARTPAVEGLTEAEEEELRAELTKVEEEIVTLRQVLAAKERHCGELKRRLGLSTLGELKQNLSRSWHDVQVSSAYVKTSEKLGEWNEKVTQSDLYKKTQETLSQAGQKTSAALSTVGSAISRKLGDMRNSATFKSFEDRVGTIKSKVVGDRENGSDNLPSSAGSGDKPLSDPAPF

Tests used:
[1] = biological target: T1, fusion protein of FLAG with HCCR-1 (FLAG-HCCR-1) (human) (UniProt Q6P1Q0); assay: co-immunoprecipitation and western blot from co-transfected CHO cells (figure legend)
T1 sequence: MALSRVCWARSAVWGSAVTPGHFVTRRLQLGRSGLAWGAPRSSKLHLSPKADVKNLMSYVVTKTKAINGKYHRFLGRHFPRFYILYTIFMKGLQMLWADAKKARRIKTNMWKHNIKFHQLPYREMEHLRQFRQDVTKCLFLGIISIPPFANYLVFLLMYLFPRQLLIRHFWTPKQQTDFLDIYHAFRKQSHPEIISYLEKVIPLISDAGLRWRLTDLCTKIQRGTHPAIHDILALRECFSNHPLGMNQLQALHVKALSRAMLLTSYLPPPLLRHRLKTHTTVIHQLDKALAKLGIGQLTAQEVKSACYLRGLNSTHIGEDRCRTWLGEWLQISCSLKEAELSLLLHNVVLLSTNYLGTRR

[2] = biological target: T1, fusion protein of FLAG with HCCR-1 (FLAG-HCCR-1) (human); assay: reciprocal co-immunoprecipitation (anti-FLAG or anti-GST) and western blot from co-transfected CHO cells

binding [1]: binds | binding [2]: binds
Substance: fusion protein of GST with D52 (GST-TPD52L2) (from UniProt O43399 1-206)
